This note sets out measurements from paper PMC5597606.

The experiment deals with T1, PKR-activating protein (PACT) (human (endogenous in HEK293T)) (UniProt O75569).
T1 sequence: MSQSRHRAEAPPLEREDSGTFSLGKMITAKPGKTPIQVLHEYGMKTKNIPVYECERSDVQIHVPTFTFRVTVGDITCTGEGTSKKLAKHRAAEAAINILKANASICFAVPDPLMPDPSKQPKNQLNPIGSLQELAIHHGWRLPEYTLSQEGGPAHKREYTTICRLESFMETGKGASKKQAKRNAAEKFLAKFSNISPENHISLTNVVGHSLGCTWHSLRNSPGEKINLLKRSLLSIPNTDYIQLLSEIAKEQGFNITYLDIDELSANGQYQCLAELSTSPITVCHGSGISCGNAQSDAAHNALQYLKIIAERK
Put plainly: co-IP; total proteins of HEK293T cells with or without PC1C, precipitated with anti-PACT antibody; detected with anti-GFP and anti-PKR antibodies.

Results are given in words; binding and its absence hold for the method and conditions named. In cells and extracts the contact can be indirect. A result given as binding can be weak or reduced; the word gives no strength.

Consider “GFP-tagged PC1 C-terminus (PC1C, aa 4104-4302) (human) (domain or fragment)”, for which the binding result is listed as “binds”.
